Values quoted from earlier work as cited in US5627270A, “Glycosylated steroid derivatives for transport across biological membranes and process for making and using same” (Trustees of Princeton University, priority 1994, dated 1997).
At least one compound was matched to its structure with a doubt left.

Tested on: Crithidia fasciculate
Conditions: antifungal agent alone; cited from earlier work

Compound: CC(C)SCC[C@@H](C)[C@H]1CC[C@H]2[C@@H]3CC[C@H]4C[C@@H](O)CC[C@]4(C)[C@H]3CC[C@]12C [Entry 24-TC, 24thiacholestanol]
- IC50: 320 nM
